Measured values published in patent publication US20260101898A1, “SULFONAMIDE COMPOUND AND HARMFUL-ARTHROPOD CONTROLLING COMPOSITION CONTAINING SAME” (SUMITOMO CHEMICAL COMPANY, LIMITED, priority 2022, published 2026).
Some entries share one result that the patent states for a list of compounds.

Columns and labels:
[1] = test system: cotton aphids (Aphis gossypii); assay: Test Method 1: foliar spray on cucumber seedling infested with cotton aphids (formulation per Formulation Example 1); assay type: in vivo; conditions: 500 ppm, spray 10 mL/seedling, 5 days after spraying, 25° C.
[2] = test system: cotton aphids (Aphis gossypii); assay: Test Method 11: foliar spray on cucumber seedling infested with cotton aphids (formulation per Formulation Example 5); assay type: in vivo; conditions: spray 10 mL/seedling, 5 days after spraying

Measured: controlling value

CN(C)S(=O)(=O)c1cc(Br)cnc1-n1nc2ccc(C(F)(F)F)cn2c1=O [Present compound 1]
≥ 90%: [1] | [2]; 50 ppm | [2]; 200 ppm

CN(C)S(=O)(=O)c1c(-n2nc3ccc(C(F)(F)F)cn3c2=O)nc2ccc(Br)cn12 [Present compound 2]
≥ 90%: [1] | [2]; 50 ppm | [2]; 200 ppm

CNS(=O)(=O)c1c(-c2nc3cc(C(F)(F)F)cnc3[nH]2)nc2ccc(C(F)(F)F)cn12 [Present compound 3]
≥ 90%: [1] | [2]; 50 ppm | [2]; 200 ppm
